Binding data for 1 molecule are collected here from publication PMC9579816.

Results are given in words; binding and its absence hold for the method and conditions named. Some entries that bind do so weakly or less than the wild type.

For this assay, the target named is T1, Tom40 (S. cerevisiae (endogenous in yeast mitochondria)) (UniProt P23644).
T1 sequence: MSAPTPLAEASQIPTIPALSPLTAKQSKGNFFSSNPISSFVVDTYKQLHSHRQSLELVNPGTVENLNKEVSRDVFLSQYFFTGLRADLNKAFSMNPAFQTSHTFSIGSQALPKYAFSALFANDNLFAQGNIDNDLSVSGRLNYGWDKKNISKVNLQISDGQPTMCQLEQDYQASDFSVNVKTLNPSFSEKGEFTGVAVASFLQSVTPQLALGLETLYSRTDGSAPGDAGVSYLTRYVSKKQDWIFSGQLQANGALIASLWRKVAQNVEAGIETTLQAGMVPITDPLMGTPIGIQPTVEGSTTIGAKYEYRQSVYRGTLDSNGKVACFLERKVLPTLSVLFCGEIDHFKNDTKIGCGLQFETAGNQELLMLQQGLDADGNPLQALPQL
The assay can be described thus: native gel or EMSA; blue native gel electrophoresis of mitochondria isolated from wild-type and Δubc8 cells shifted from glycerol to glucose medium for 4 h; Western blotting.

B1: Tom22 (protein, UniProt P49334 1-152)
chain: MVELTEIKDDVVQLDEPQFSRNQAIVEEKASATNNDVVDDEDDSDSDFEDEFDENETLLDRIVALKDIVPPGKRQTISNFFGFTSSFVRNAFTKSGNLAWTLTTTALLLGVPLSLSILAEQQLIEMEKTFDLQSDANNILAQGEKDAAATAN
In the case of B1, the binding entry was “binds”.
